PubChem BioAssay (Tox21)
Inconclusive means that the source gave no clear call. Such entries were picked first, then a sample of the others. For some of these results: Where the call is inconclusive, the potency comes from a doubtful curve fit. The source made the active and inactive calls. Unless noted, the call rests on the fitted dose curve.

Amino acid sequences for entries named in this document (tags omitted). A change or cut given only in a name is not applied to a line headed by its entry.
UniProt P11229: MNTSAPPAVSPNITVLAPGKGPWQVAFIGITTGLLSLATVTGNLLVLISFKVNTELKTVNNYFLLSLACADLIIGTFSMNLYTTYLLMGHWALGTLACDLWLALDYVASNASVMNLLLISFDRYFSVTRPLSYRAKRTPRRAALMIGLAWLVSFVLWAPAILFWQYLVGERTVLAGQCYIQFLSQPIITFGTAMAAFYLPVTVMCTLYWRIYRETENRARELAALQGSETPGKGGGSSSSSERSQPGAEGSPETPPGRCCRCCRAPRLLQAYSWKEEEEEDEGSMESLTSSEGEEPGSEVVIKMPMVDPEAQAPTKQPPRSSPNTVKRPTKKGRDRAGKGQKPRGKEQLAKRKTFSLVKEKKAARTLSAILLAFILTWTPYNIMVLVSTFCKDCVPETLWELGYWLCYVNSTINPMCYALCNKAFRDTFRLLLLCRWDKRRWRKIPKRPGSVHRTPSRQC
UniProt P28223, whole entry, looked up: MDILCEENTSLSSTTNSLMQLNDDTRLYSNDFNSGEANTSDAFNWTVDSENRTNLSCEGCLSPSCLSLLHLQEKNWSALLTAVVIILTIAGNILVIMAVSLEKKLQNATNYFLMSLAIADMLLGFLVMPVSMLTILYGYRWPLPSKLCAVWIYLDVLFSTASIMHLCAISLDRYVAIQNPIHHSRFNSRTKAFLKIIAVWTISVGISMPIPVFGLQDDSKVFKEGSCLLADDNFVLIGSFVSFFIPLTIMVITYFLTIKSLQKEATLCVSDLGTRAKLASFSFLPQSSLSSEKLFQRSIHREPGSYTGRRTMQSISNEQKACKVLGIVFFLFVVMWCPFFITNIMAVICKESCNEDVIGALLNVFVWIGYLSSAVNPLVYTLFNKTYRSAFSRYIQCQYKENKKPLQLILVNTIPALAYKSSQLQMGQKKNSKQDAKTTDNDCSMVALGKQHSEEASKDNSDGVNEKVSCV
UniProt P14416, whole entry, looked up: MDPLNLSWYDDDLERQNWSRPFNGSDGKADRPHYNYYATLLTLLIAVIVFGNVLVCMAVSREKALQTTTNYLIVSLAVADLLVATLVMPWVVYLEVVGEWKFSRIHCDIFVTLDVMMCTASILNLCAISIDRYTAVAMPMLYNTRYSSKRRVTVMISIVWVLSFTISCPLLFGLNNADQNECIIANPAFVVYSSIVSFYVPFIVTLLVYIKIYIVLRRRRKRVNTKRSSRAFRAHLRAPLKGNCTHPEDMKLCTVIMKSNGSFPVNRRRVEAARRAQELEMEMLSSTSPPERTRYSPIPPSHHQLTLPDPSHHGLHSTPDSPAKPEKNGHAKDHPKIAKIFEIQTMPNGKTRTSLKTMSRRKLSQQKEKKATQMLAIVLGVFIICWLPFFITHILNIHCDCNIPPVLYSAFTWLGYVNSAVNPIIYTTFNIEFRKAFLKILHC

Columns and labels:
[1] = Nuclear factor erythroid 2-related factor 2/antioxidant responsive element (Nrf2/ARE) small molecule agonists: luciferase reporter gene qHTS assay in human keratinocytes (AID 1919969); settings: KeratinoSens HaCaT ARE-luciferase, luminescence, 24 h; activity, positive = activation: at 92.4 µM (top of the series); further: nearly all actives have a fitted effect of over 35% in size; further: potency means the concentration at half of the fitted maximal effect; on activity, positive = activation: on the % scale 0 is the no-effect control and ±100 the full control effect
[2] = p53 small molecule agonists, cell-based qHTS assay (AID 1963582; active means well fitted activation curve with a large enough effect in the signal ratio in the repeat runs, not every such curve was filed as active; inconclusive means weak or mixed curves; the % refers to the signal ratio; further: potency means the concentration at half of the fitted maximal effect; on activation: on the % scale 0 is the no-effect control and ±100 the full control effect); settings: HCT-116 p53RE-bla reporter, beta-lactamase FRET ratio, 16 h
Summary of the method: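 Fluorescence intensity read-out of a beta-lactamase reporter under a p53 response element. Cells were exposed to DMSO-dissolved compounds for 16 h at 37 C, then developed with FRET substrate for 2 h at RT.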

[3] = target: Muscarinic acetylcholine receptor M1 (Homo sapiens) (UniProt P11229); assay: Cholinergic receptor muscarinic 1 (CHRM1) small molecule agonists, cell-based qHTS assay (AID 1963589); further: potency means the concentration at half of the fitted maximal effect; nearly all actives have a fitted effect of over 35% in size
Summary of the method: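 Calcium flux read-out: kinetic fluorescence at 1 sec intervals after pin-tool compound addition to dye-loaded CHRM1-CHO cells (human M1). Agonist mode; 15 concentrations tested in triplicate independent runs.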

[4] = cAMP Responsive Elements (CRE) small molecule agonists, cell-based qHTS assay (AID 1963590); settings: CRE-bla HEK293T, beta-lactamase FRET ratio, 3 h; activation: at 92.4 µM (top of the series) unless noted; further: potency means the concentration at half of the fitted maximal effect
Summary of the method: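 Beta-lactamase reporter readout: LiveBLAzer B/G FRET substrate, 2 h at room temperature, added after 3 h compound treatment of CRE-bla HEK 293T cells at 37 C/5% CO2.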

[5] = cAMP Responsive Elements (CRE) small molecule antagonists, cell-based qHTS assay (AID 1963591; active means well fitted inhibition curve with a large enough effect in the signal ratio in the repeat runs, not every such curve was filed as active; inconclusive means weak or mixed curves, or effect the other way; the % refers to the signal ratio; further: potency means the concentration at half of the fitted maximal effect; on activity change, negative = inhibition: on the % scale 0 is the no-effect control and ±100 the full control effect); settings: CRE-bla HEK293T, beta-lactamase FRET ratio
Summary of the method: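 HEK293T CRE-bla; 18 h preincubation; compound pin-transfer; NKH477 0.25 uM final, 3 h, 37 C; LiveBLAzer FRET substrate 2 h RT.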

[6] = target: Beta-2 adrenergic receptor (Homo sapiens) (UniProt P07550); assay: Adrenergic beta2 receptor (ADRB2) small molecule agonists, cell-based qHTS assay (AID 1963593); settings: CHO-ADRB2 cells, cAMP HTRF, 30 min; further: potency means the concentration at half of the fitted maximal effect;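 on activation: CHO cells stably overexpressing human ADRB2; on the % scale 0 is the no-effect control and ±100 the full control effect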
Summary of the method: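 CHO cells stably over-expressing ADRB2 were plated overnight at 37C, then dosed with compounds plus a stimulation mix containing 100uM IBMX and 25uM Ro-20-1724 for 0.5hr at room temperature. cAMP was measured by HTRF competition, 1hr.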

[7] = target: 5-hydroxytryptamine receptor 2A (Homo sapiens) (UniProt P28223); assay: 5-hydroxytryptamine receptor 2A (HTR2A) small molecule antagonists, cell-based qHTS assay (AID 1963586); further: nearly all actives have a fitted effect of over 45% in size; further: potency means the concentration at half of the fitted maximal effect
Summary of the method: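 CHO cells stably expressing human HTR2A were plated for 18 h at 37 C, then loaded with calcium dye for 1 h. Compounds were preincubated 5 min at room temperature before DOI (4 nM solution) was added. Kinetic fluorescence was read for 3 min.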

[8] = target: 5-hydroxytryptamine receptor 2A (Homo sapiens) (UniProt P28223); assay: 5-hydroxytryptamine receptor 2A (HTR2A) small molecule agonists, cell-based qHTS assay (AID 1963587); further: on the % scale 0 is the no-effect control and ±100 the full control effect; nearly all actives have a fitted effect of over 30% in size
Summary of the method: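 Kinetic calcium-flux fluorescence (2 min, 1 sec intervals) after compound addition in agonist mode. HTR2A-CHO cells were cultured 18 h, then dye-loaded 1 h at 37 C.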

[9] = target: Muscarinic acetylcholine receptor M1 (Homo sapiens) (UniProt P11229); assay: Cholinergic receptor muscarinic 1 (CHRM1) small molecule antagonists, cell-based qHTS assay (AID 1963588); further: potency means the concentration at half of the fitted maximal effect; nearly all actives have a fitted effect of over 40% in size
Summary of the method: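 Compounds were tested at 15 concentrations in three independent runs. Dye-loaded CHRM1-CHO cells were exposed 5 min at room temperature before stimulation by acetylcholine added at 50nM. Intracellular calcium was read kinetically on FDSS for 3 min.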

[10] = target: D(2) dopamine receptor (Homo sapiens) (UniProt P14416); assay: Dopamine D2 receptor (DRD2) small molecule agonists, cell-based qHTS assay (AID 1963594); settings: HEK293-DRD2 cAMP HTRF, agonist mode, 30 min; activation: at 92.4 µM (top of the series) unless noted; further: potency means the concentration at half of the fitted maximal effect; nearly all actives have a fitted effect of over 35% in size
Summary of the method: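 cAMP accumulation in DRD2-HEK293 cells measured by HTRF after 1 h detection; compounds added 10 min before NKH477 (200nM […]) forskolin-analogue stimulation, 30 min at room temperature, with Ro20-1724 present at 0.1 mM final.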

[11] = activation: at 66 µM (top of the series) unless noted
[12] = activity change, negative = inhibition: at 92.4 µM (top of the series) unless noted
[13] = activation: at 92.4 µM (top of the series) unless noted

Which Potency [1] does the source give for `CC(C(=O)O)c1ccc2c(c1)[nH]c1ccc(Cl)cc12` (stereo not drawn) here?
Its Potency is inconclusive: 0.944 µM [activator, partial curve].

What about the Potency [2, 11] of the same molecule?
Its Potency is inconclusive: 8.9 µM [rising, partial curve].

And the Potency [3]?
Its Potency is inconclusive: 0.0007 µM.

And the Potency [4]?
The Potency was inconclusive: 21.1 µM [rising, partial curve].

And the Potency [5, 12]?
Its Potency is inconclusive: 26.6 µM [fluorescent, partial curve, poor fit].

Which Potency [1] does the source give for `Oc1ccc(OCc2ccccc2)cc1` here?
The Potency was inconclusive: 13.3 µM [activator, single point].

What about the activation [2, 11] of the same molecule?
Its activation is inconclusive: 31.8%.

What about the activation ([2]; at 30.3 µM (top of the series)) of the same molecule?
The activation was inactive: -2.78%.

What about the Potency [4] of the same molecule?
Its Potency is inconclusive: 23.7 µM [rising, partial curve].

What about the activation [6, 13] of the same molecule?
The activation was inconclusive: 3.27% [at 42.5 µM].

And the activation ([6]; at 92.4 µM (top of the series))?
The activation was inactive: -3.18%.

Which Potency [1] does the source give for `CCOC(=O)/C=C/c1ccccc1` here?
Its Potency is inconclusive: 61.1 µM [activator, partial curve, poor fit].

And the Potency [2, 11]?
Its Potency is “inactive”.

With `C[C@@H]1C[C@H]2O[C@@]3(O[C@@H]2C(C)(C)O)[C@H](O)[C@@]2(C)[C@@H]4CC[C@H]5C(C)(C)[C@@H](O[C@@H]6OC[C@@H](O)[C@H](O)[C@H]6O)CC[C@@]56C[C@@]46CC[C@]2(C)[C@@H]13` as the molecule, how does the Potency [1] read?
Its Potency is inconclusive: 17 µM [activator, single point].

And the Potency [2, 11]?
Its Potency is inconclusive: 6.38 µM [rising, full curve].

And the Potency [7]?
Its Potency is inconclusive: 0.0829 µM [inhibitor, full curve, poor fit].

What about the Potency [4] of the same molecule?
The Potency was inconclusive: 6.04 µM.

And the Potency [5, 12]?
The Potency was inconclusive: 4.79 µM [activator, full curve, poor fit].

What about the activation [6, 13] of the same molecule?
The activation was inconclusive: -36.8% [at 42.5 µM].

Which results are given for `CCCCCCCCCCCCCc1ccccc1`?
Potency [1]: inactive; Potency [2, 11]: inactive; Potency [7]: inconclusive: 0.0008 µM [inhibitor, full curve, poor fit]; Potency [5, 12]: inactive; Potency [6, 13]: inactive

Which activity, positive = activation [1] does the source give for `O=C(O)C[C@H](O)C[C@H](O)/C=C/c1c(C2CC2)nc2ccccc2c1-c1ccc(F)cc1` here?
Its activity, positive = activation is inactive: -21.1% [at 19 µM].

What about the Potency [2, 11] of the same molecule?
Its Potency is inconclusive: 4.87 µM [rising, full curve].

And the activation [4]?
Its activation is inactive: 0.303% [at 19 µM].

What about the activity change, negative = inhibition [5, 12] of the same molecule?
Its activity change, negative = inhibition is inconclusive: 29.8% [at 18.9 µM].

What about the Potency [6, 13] of the same molecule?
The Potency was inconclusive: 16.4 µM [inhibitor, partial curve, poor fit].

Which Potency [1] does the source give for `CC(C(=O)O)c1ccc(-c2ccccc2)c(F)c1` (stereo not drawn) here?
The Potency was “inactive”.

What about the Potency [2, 11] of the same molecule?
Its Potency is inconclusive: 7.25 µM [rising, full curve, poor fit].

And the Potency [4]?
Its Potency is inconclusive: 24.3 µM [rising, partial curve].

And the Potency [5, 12]?
Its Potency is inconclusive: 34.4 µM [fluorescent, partial curve, poor fit].

What about the activation [6, 13] of the same molecule?
The activation was inconclusive: -25.5%.

Which results are given for `CCC(C)CO` (stereo not drawn)?
Potency [1]: inconclusive: 38.1 µM [activator, partial curve]; Potency [2, 11]: inconclusive: 50.7 µM [activator, single point]; Potency [4]: inactive; activation [6, 13]: inconclusive: 14.1%; activation ([6]; at 92.4 µM (top of the series)): inactive: -9.13%

With `CCCCC1CCC(O)CC1` (stereo not drawn) as the molecule, how does the Potency [1] read?
Its Potency is “inactive”.

What about the Potency [2, 11] of the same molecule?
Its Potency is “inactive”.

And the Potency [4]?
Its Potency is “inactive”.

And the Potency [6, 13]?
The Potency was “inactive”.

Which results are given for `COC(=O)C(c1ccccc1Cl)N1CCc2sccc2C1` (stereo not drawn)?
Potency [1]: inactive; Potency [2, 11]: inactive; Potency [4]: inconclusive: 26.6 µM [rising, partial curve, poor fit]; activity change, negative = inhibition [5, 12]: inconclusive: 15.4% [at 42.4 µM]; Potency [6, 13]: inactive

What does the source list for `S=c1nccc[nH]1`?
Potency [1]: inconclusive: 61.2 µM [activator, partial curve]; Potency [2, 11]: inactive; Potency [8]: inactive; activation [6, 13]: inconclusive: 36.4%

For `Oc1ccccc1O`, which Potency [1] is on record?
Its Potency is inconclusive: 27.3 µM [activator, single point].

And the Potency [2, 11]?
Its Potency is inconclusive: 32.8 µM [fluorescent, partial curve].

What about the activation [2, 11] of the same molecule?
The activation was inconclusive: 15.6%.

And the activity change, negative = inhibition [5, 12]?
The activity change, negative = inhibition was inconclusive: 3.47%.

What about the activity change, negative = inhibition ([5]; at 92.4 µM (top of the series)) of the same molecule?
The activity change, negative = inhibition was inactive: -7.15%.

And the Potency [6, 13]?
The Potency was inconclusive: 0.246 µM [inhibitor, single point].

What about the activation [6, 13] of the same molecule?
Its activation is inconclusive: -0.807%.

Which Potency [1] does the source give for `Cc1cc(C)c(O)c(C)c1` here?
The Potency was “inactive”.

And the Potency [2, 11]?
Its Potency is “inactive”.

And the Potency [9]?
Its Potency is inconclusive: 0.0168 µM [inhibitor, full curve, poor fit].

And the Potency [6, 13]?
The Potency was “inactive”.

And the Potency [10]?
The Potency was inconclusive: 0.969 µM [rising, partial curve, poor fit].

What does the source list for `O=C(Nc1ccc2c(c1)Cc1ccccc1-2)C(F)(F)F`?
Potency [1]: inconclusive: 21.7 µM [activator, partial curve]; Potency [2, 11]: inconclusive: 25.7 µM [rising, partial curve, poor fit]; Potency [7]: inactive; activation [6, 13]: inconclusive: 1.71%

With `CC(C)C1=CC2=CC[C@@H]3[C@](C)(CCC[C@@]3(C)C(=O)O)[C@H]2CC1` as the molecule, how does the Potency [1] read?
Its Potency is inconclusive: 54.5 µM [activator, partial curve].

And the Potency [2, 11]?
The Potency was inconclusive: 45.8 µM [rising, single point].

And the Potency [4]?
The Potency was inconclusive: 68.6 µM [rising, partial curve, poor fit].

What about the Potency [5, 12] of the same molecule?
The Potency was inconclusive: 61.1 µM [activator, partial curve].

And the activation [6, 13]?
Its activation is inconclusive: -4.17%.
